For assay [1], the target named is IGF-IR expressed on baculovirus-infected Sf9 insect cells (UniProt P08069). Briefly: flow cytometry on Sf9 cells expressing IGF-IR. In general terms: Flow cytometry measures light scatter and fluorescence of single cells or particles in a stream.
The target in assay [2] is human recombinant IGF-IR (immunogen and ELISA antigen) (human) (UniProt P08069). The experiment in a line: ELISA on plates coated with human recombinant IGF-IR. (In general: ELISA stands for enzyme-linked immunosorbent assay.)

The chains behind the UniProt entries cited, without tags or fusion partners. Where a name states a change or a piece, a line headed by the entry shows the natural chain unless it says otherwise. Residues count along the entry.
UniProt P08069: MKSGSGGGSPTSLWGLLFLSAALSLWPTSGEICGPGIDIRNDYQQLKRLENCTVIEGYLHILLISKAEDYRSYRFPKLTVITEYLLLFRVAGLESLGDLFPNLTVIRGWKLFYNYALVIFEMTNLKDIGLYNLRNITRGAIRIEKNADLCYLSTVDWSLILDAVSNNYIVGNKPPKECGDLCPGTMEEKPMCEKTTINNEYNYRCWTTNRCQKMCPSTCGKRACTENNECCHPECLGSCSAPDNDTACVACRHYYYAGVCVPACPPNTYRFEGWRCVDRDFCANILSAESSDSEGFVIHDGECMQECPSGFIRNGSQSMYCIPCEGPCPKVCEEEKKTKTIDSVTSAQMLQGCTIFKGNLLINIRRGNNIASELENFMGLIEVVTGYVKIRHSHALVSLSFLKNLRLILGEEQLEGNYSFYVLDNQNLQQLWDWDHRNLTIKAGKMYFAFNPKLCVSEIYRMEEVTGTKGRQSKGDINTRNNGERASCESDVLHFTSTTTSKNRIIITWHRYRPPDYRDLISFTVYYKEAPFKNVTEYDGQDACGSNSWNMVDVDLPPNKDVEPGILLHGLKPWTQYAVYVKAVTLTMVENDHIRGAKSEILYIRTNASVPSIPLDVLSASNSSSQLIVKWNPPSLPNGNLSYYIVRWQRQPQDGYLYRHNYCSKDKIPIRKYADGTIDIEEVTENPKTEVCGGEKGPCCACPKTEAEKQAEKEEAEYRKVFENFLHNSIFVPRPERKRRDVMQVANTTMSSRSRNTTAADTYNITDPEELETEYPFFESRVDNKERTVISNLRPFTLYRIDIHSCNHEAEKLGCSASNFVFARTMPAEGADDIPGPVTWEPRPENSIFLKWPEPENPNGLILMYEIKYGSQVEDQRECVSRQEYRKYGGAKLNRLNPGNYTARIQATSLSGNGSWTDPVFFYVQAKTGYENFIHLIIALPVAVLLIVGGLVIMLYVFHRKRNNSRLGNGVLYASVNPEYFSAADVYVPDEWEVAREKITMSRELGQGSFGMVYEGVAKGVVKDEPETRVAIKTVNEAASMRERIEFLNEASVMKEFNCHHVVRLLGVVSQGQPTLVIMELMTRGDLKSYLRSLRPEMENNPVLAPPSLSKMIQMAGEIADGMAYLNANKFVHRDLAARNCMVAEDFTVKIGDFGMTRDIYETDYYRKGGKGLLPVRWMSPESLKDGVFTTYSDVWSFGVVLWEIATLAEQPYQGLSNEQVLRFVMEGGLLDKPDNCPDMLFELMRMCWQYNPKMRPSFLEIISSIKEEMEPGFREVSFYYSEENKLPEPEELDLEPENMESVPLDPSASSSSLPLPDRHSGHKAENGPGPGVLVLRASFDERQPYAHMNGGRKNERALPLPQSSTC
IGF-IR expressed on baculovirus-infected Sf9 insect cells: residues 31-1367 of P08069
human recombinant IGF-IR (immunogen and ELISA antigen): residues 31-932 of P08069

Results are given in words; binding and its absence hold for the method and conditions named. Some entries that bind do so weakly or less than the wild type.

B1: mouse monoclonal antibody 12B1 (anti-IGF-1R) (antibody, mouse IgG1, V domains shown)
VH: QVQLKESGPDLVAPSQSLSITCTVSGFSLTNYGVHWVRQFPGKGLEWLGVIWAGGNTNYNSALMSRLTISKDNSKSQVFLKMNSLQTDDTAVYYCAREYGSTYVAWFAHWGQGTLVTVSS
VL: ENVLTQSPAIMSASPGEKVTMTCGASSSVSSSFLHWYQQKSGASPKLWIYSTSNLASGVPTRFSGSGSGTSYSLTISSVEAEDAATYYCQQYSGYPLTFGAGTKLELK
notes: also called MAb 12B1; clone 12B1
As for B1, the binding entry in assay [1] and in assay [2] was “binds” each time.

(Values after patent US20150078996A1 (Merck Sharp & Dohme, published 2015).)
